These are yes or no findings as the source states them, for the method shown. Where a sequence is shown, tags or fusion partners need not be part of it.
Molecular target: T1, BRASSINOSTEROID ENHANCED EXPRESSION1 (BEE1), yeast two-hybrid fusion (Arabidopsis thaliana) (UniProt Q8GZ13)
T1 sequence: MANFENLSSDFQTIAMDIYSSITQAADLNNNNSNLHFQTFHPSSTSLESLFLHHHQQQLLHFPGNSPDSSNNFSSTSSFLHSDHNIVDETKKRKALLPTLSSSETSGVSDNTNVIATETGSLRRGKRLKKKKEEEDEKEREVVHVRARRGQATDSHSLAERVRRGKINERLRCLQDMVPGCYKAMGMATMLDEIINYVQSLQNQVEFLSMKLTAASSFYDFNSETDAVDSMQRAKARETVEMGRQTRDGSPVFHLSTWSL
Experiment: two-hybrid; GAL4 system (pGADT7 and pGBKT7), yeast strain AH109, cotransformation, 22°C; positive when growth on -W-L-H +15 mM 3-AT selective medium

Substance: … (STK), yeast two-hybrid fusion (from UniProt Q38836 1-230)
- binding: no binding
